We go through 34 compounds from the supplement of paper PMC4604168 (melanoma cell lines).

The other results are listed elsewhere or left out. Many values rest on one well or one pass, so single values are uncertain.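 Cells were imaged in 1,536-well plates, and nuclei stained with an antibody against cleaved PARP were counted against all DNA-stained nuclei to give the apoptosis fraction. Screening doses were chosen to leave most cells alive, and resting and induced cleaved-PARP levels differ strongly between cell lines.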

One experiment has as its system IST-MEL1. Put plainly: cleaved PARP positive nuclei fraction relative to DMSO control; melanoma cells; higher = more apoptosis. As to conditions: library dose: low library concentration; 72 h.
Regarding `O=C(CCCCCCC(=O)Nc1ccccc1)NO` [vorinostat] + Cc1cc(SCc2sc(-c3ccc(C(F)(F)F)c(F)c3)nc2C)ccc1OCC(=O)O [GW0742] (first compound 0.08 µM, partner dose 2 µM), the “cleaved PARP positive nuclei fraction” value was 188%.

`COC(=O)c1sccc1S(=O)(=O)Nc1ccc(Nc2ccccc2)cc1OC` + O=C(Oc1ccc([N+](=O)[O-])cc1)N1CCC(C(O)(c2ccc3c(c2)OCO3)c2ccc3c(c2)OCO3)CC1 [JZL184] (first compound 1 µM, partner dose 1 µM): the “cleaved PARP positive nuclei fraction” value was determined as 44.1%.

In the case of `Nc1cccc2c1CN(C1CCC(=O)NC1=O)C2=O` (centres undefined) [lenalidomide] + O=C(Oc1ccc([N+](=O)[O-])cc1)N1CCC(C(O)(c2ccc3c(c2)OCO3)c2ccc3c(c2)OCO3)CC1 [JZL184] (first compound 1 µM, partner dose 1 µM), the “cleaved PARP positive nuclei fraction” value stood at 352%.

As to `Cn1cncc1[C@@](N)(c1ccc(Cl)cc1)c1ccc2c(c1)c(-c1cccc(Cl)c1)cc(=O)n2C` [tipifarnib] + C/C(O)=C(\C#N)C(=O)Nc1cc(Br)ccc1Br [LFM-A13] (first compound 0.01 µM, partner dose 2 µM), the “cleaved PARP positive nuclei fraction” value stood at 103%.

With `COc1cc(Nc2ncc(F)c(Nc3ccc4c(n3)NC(=O)C(C)(C)O4)n2)cc(OC)c1OC` [Tamatinib] + C/C(O)=C(\C#N)C(=O)Nc1cc(Br)ccc1Br [LFM-A13] (first compound 0.4 µM, partner dose 2 µM), the “cleaved PARP positive nuclei fraction” value was determined as 174%.

In another experiment the test system is LB2518-MEL. Described as above. As to conditions: library dose: low library concentration; 72 h.
As for `C[As](C)SC[C@H](NC(=O)CC[C@H](N)C(=O)O)C(=O)NCC(=O)O` [Darinaparsin] + c1cc(-c2cnn3cc(-c4ccc(OCCN5CCCCC5)cc4)cnc23)ccn1 [Dorsomorphin] (first compound 0.4 µM, partner dose 0.4 µM), the “cleaved PARP positive nuclei fraction” value came out at 85.2%.

With `Cc1nc(Nc2ncc(C(=O)Nc3c(C)cccc3Cl)s2)cc(N2CCN(CCO)CC2)n1` [dasatanib] + Cc1cc(SCc2sc(-c3ccc(C(F)(F)F)c(F)c3)nc2C)ccc1OCC(=O)O [GW0742] (first compound 0.004 µM, partner dose 2 µM), the “cleaved PARP positive nuclei fraction” value was determined as 149%.

With `C/C(O)=C(\C#N)C(=O)Nc1cc(Br)ccc1Br` + Oc1nc(-c2ccc(C(F)(F)F)cc2)nc2c1CSCC2 [XAV939] (first compound 2 µM, partner dose 2 µM), the “cleaved PARP positive nuclei fraction” value was 89.2%.

Regarding `O=C(Nc1cccc(Cl)c1)Nc1ncc(CCNc2ncnc3ccsc23)s1` + C/C(O)=C(\C#N)C(=O)Nc1cc(Br)ccc1Br [LFM-A13] (first compound 0.0008 µM, partner dose 2 µM), the “cleaved PARP positive nuclei fraction” value stood at 78.5%.

For the compound `Cc1ccc(NC(=O)c2cccc(N(C)C)c2)cc1NC(=O)c1ccc(O)cc1` + O=C(Oc1ccc([N+](=O)[O-])cc1)N1CCC(C(O)(c2ccc3c(c2)OCO3)c2ccc3c(c2)OCO3)CC1 [JZL184] (first compound 2 µM, partner dose 1 µM), the “cleaved PARP positive nuclei fraction” value came out at 194%.

As to `O=C(Oc1ccc([N+](=O)[O-])cc1)N1CCC(C(O)(c2ccc3c(c2)OCO3)c2ccc3c(c2)OCO3)CC1` + CC(C)CCN1c2nc(Nc3cc(F)c(O)c(F)c3)ncc2N(C)C(=O)C1C [BID1870] (first compound 1 µM, partner dose 0.2 µM), the “cleaved PARP positive nuclei fraction” value was 78.4%.

Turning to `OCCn1cc(-c2cnc3nnn(Cc4ccc5ncccc5c4)c3n2)cn1` + C/C(O)=C(\C#N)C(=O)Nc1cc(Br)ccc1Br [LFM-A13] (first compound 1 µM, partner dose 2 µM), the “cleaved PARP positive nuclei fraction” value turned out to be 82.4%.

As to `C[As](C)SC[C@H](NC(=O)CC[C@H](N)C(=O)O)C(=O)NCC(=O)O` [Darinaparsin] + O=C1NC(=O)/C(=C/c2ccc(-c3ccc(F)cc3O)o2)S1 [AS252424] (first compound 0.4 µM, partner dose 1 µM), the “cleaved PARP positive nuclei fraction” value worked out at 93.6%.

For the compound `Nc1cccc2c1CN(C1CCC(=O)NC1=O)C2=O` (centres undefined) [lenalidomide] + Cc1cc(SCc2sc(-c3ccc(C(F)(F)F)c(F)c3)nc2C)ccc1OCC(=O)O [GW0742] (first compound 1 µM, partner dose 2 µM), the “cleaved PARP positive nuclei fraction” value was 79.6%.

`C/C(O)=C(\C#N)C(=O)Nc1cc(Br)ccc1Br` + CCCCCCCCCCCC1=C(O)C(=O)C=C(O)C1=O [Embelin] (first compound 2 µM, partner dose 1.2 µM): the “cleaved PARP positive nuclei fraction” value was determined as 89.9%.

Take `Cc1cc(SCc2sc(-c3ccc(C(F)(F)F)c(F)c3)nc2C)ccc1OCC(=O)O` + Cn1cc(/C=C2\C(=O)Nc3cccnc32)c2ccccc21 [GW441756] (first compound 2 µM, partner dose 0.4 µM): the “cleaved PARP positive nuclei fraction” value is 72%.

In the case of `C[As](C)SC[C@H](NC(=O)CC[C@H](N)C(=O)O)C(=O)NCC(=O)O` [Darinaparsin] + Cc1cc([N+](=O)[O-])ccc1NS(=O)(=O)c1cc(Cl)ccc1Cl [FH535] (first compound 0.4 µM, partner dose 1 µM), the “cleaved PARP positive nuclei fraction” value stood at 162%.

As to `C=CCn1c(=O)c2cnc(Nc3ccc(N4CCN(C)CC4)cc3)nc2n1-c1cccc(C(C)(C)O)n1` + O=C(Oc1ccc([N+](=O)[O-])cc1)N1CCC(C(O)(c2ccc3c(c2)OCO3)c2ccc3c(c2)OCO3)CC1 [JZL184] (first compound 0.02 µM, partner dose 1 µM), the “cleaved PARP positive nuclei fraction” value came out at 110%.

As for `C/C(O)=C(\C#N)C(=O)Nc1cc(Br)ccc1Br` + c1cc(-c2cnn3cc(-c4ccc(OCCN5CCCCC5)cc4)cnc23)ccn1 [Dorsomorphin] (first compound 2 µM, partner dose 0.4 µM), the “cleaved PARP positive nuclei fraction” value was 66.3%.

On to `C/C(O)=C(\C#N)C(=O)Nc1cc(Br)ccc1Br` + O=C(Oc1ccc([N+](=O)[O-])cc1)N1CCC(C(O)(c2ccc3c(c2)OCO3)c2ccc3c(c2)OCO3)CC1 [JZL184] (first compound 2 µM, partner dose 1 µM), for which the “cleaved PARP positive nuclei fraction” value was 95.4%.

Regarding `Cc1cc(SCc2sc(-c3ccc(C(F)(F)F)c(F)c3)nc2C)ccc1OCC(=O)O` + O=C1NC(=O)/C(=C/c2ccc(-c3ccc(F)cc3O)o2)S1 [AS252424] (first compound 2 µM, partner dose 1 µM), the “cleaved PARP positive nuclei fraction” value is 91.4%.

Turning to `CCc1ccc(CCOc2ccc(CC3SC(=O)NC3=O)cc2)nc1` (centres undefined) [pioglitazone] + Cc1cc(SCc2sc(-c3ccc(C(F)(F)F)c(F)c3)nc2C)ccc1OCC(=O)O [GW0742] (first compound 2 µM, partner dose 2 µM), the “cleaved PARP positive nuclei fraction” value came out at 72.2%.

As for `COc1ccc2c(c1)CCC1C2CCC2(C)C(NCCCCCCN3C(=O)C=CC3=O)CCC12` (centres undefined) + O=C(Oc1ccc([N+](=O)[O-])cc1)N1CCC(C(O)(c2ccc3c(c2)OCO3)c2ccc3c(c2)OCO3)CC1 [JZL184] (first compound 0.4 µM, partner dose 1 µM), the “cleaved PARP positive nuclei fraction” value was determined as 107%.

For the compound `Cc1cc(SCc2sc(-c3ccc(C(F)(F)F)c(F)c3)nc2C)ccc1OCC(=O)O` + O=C(Oc1ccc([N+](=O)[O-])cc1)N1CCC(C(O)(c2ccc3c(c2)OCO3)c2ccc3c(c2)OCO3)CC1 [JZL184] (first compound 2 µM, partner dose 1 µM), the “cleaved PARP positive nuclei fraction” value was found to be 138%.

As for `C/C(O)=C(\C#N)C(=O)Nc1cc(Br)ccc1Br` + Cc1cc([N+](=O)[O-])ccc1NS(=O)(=O)c1cc(Cl)ccc1Cl [FH535] (first compound 2 µM, partner dose 1 µM), the “cleaved PARP positive nuclei fraction” value is 253%.

Regarding `NCC(=O)Nc1ccc(-n2nc(C(F)(F)F)cc2-c2ccc3c(ccc4ccccc43)c2)cc1` + O=C(Oc1ccc([N+](=O)[O-])cc1)N1CCC(C(O)(c2ccc3c(c2)OCO3)c2ccc3c(c2)OCO3)CC1 [JZL184] (first compound 1 µM, partner dose 1 µM), the “cleaved PARP positive nuclei fraction” value was found to be 74%.

In the case of `O=C(O)C(=O)Nc1sc2c(c1C(=O)O)CCNC2` + C/C(O)=C(\C#N)C(=O)Nc1cc(Br)ccc1Br [LFM-A13] (first compound 1.66667 µM, partner dose 2 µM), the “cleaved PARP positive nuclei fraction” value was found to be 148%.

`COc1ccc2c(c1)CCC1C2CCC2(C)C(NCCCCCCN3C(=O)C=CC3=O)CCC12` (centres undefined) + Cc1cc(SCc2sc(-c3ccc(C(F)(F)F)c(F)c3)nc2C)ccc1OCC(=O)O [GW0742] (first compound 0.4 µM, partner dose 2 µM): the “cleaved PARP positive nuclei fraction” value turned out to be 146%.

Take `Cc1ccc(NC(=O)c2cccc(N(C)C)c2)cc1NC(=O)c1ccc(O)cc1` + C/C(O)=C(\C#N)C(=O)Nc1cc(Br)ccc1Br [LFM-A13] (first compound 2 µM, partner dose 2 µM): the “cleaved PARP positive nuclei fraction” value was 85.5%.

On to `O=C(Oc1ccc([N+](=O)[O-])cc1)N1CCC(C(O)(c2ccc3c(c2)OCO3)c2ccc3c(c2)OCO3)CC1` + O=c1cc(-c2cccc3c2Sc2ccccc2S3)oc(N2CCOCC2)c1 [KU55933] (first compound 1 µM, partner dose 1 µM), for which the “cleaved PARP positive nuclei fraction” value turned out to be 70.7%.

With `C/C(O)=C(\C#N)C(=O)Nc1cc(Br)ccc1Br` + O=c1cc(-c2cccc3c2Sc2ccccc2S3)oc(N2CCOCC2)c1 [KU55933] (first compound 2 µM, partner dose 1 µM), the “cleaved PARP positive nuclei fraction” value was determined as 42.9%.

Take `C=CCn1c(=O)c2cnc(Nc3ccc(N4CCN(C)CC4)cc3)nc2n1-c1cccc(C(C)(C)O)n1` + Cc1cc(SCc2sc(-c3ccc(C(F)(F)F)c(F)c3)nc2C)ccc1OCC(=O)O [GW0742] (first compound 0.02 µM, partner dose 2 µM): the “cleaved PARP positive nuclei fraction” value is 196%.

As to `C[C@]1(c2nc3c(C(N)=O)cccc3[nH]2)CCCN1` [Veliparib] + Cc1cc(SCc2sc(-c3ccc(C(F)(F)F)c(F)c3)nc2C)ccc1OCC(=O)O [GW0742] (first compound 1.4 µM, partner dose 2 µM), the “cleaved PARP positive nuclei fraction” value amounted to 82%.

As to `CCN(CC)CCCCNc1ncc2cc(-c3cc(OC)cc(OC)c3)c(NC(=O)NC(C)(C)C)nc2n1` + Cc1cc(SCc2sc(-c3ccc(C(F)(F)F)c(F)c3)nc2C)ccc1OCC(=O)O [GW0742] (first compound 0.1 µM, partner dose 2 µM), the “cleaved PARP positive nuclei fraction” value stood at 164%.
